No constants are given. Whether binding was seen depends on the method and setting. In cells and extracts the contact can be indirect. Some binding calls cover weakened binding; strength is not graded here.

Protein sequences, listed by entry. Tags and fused reporters are not part of them. Lines headed by an entry give the natural chain unless they say otherwise; changes in a name come on top.
UniProt P61224: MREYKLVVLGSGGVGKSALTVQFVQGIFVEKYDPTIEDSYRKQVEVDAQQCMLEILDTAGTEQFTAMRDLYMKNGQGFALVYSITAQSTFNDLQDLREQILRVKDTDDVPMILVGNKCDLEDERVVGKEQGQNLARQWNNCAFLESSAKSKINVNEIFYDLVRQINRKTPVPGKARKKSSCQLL
UniProt P46940: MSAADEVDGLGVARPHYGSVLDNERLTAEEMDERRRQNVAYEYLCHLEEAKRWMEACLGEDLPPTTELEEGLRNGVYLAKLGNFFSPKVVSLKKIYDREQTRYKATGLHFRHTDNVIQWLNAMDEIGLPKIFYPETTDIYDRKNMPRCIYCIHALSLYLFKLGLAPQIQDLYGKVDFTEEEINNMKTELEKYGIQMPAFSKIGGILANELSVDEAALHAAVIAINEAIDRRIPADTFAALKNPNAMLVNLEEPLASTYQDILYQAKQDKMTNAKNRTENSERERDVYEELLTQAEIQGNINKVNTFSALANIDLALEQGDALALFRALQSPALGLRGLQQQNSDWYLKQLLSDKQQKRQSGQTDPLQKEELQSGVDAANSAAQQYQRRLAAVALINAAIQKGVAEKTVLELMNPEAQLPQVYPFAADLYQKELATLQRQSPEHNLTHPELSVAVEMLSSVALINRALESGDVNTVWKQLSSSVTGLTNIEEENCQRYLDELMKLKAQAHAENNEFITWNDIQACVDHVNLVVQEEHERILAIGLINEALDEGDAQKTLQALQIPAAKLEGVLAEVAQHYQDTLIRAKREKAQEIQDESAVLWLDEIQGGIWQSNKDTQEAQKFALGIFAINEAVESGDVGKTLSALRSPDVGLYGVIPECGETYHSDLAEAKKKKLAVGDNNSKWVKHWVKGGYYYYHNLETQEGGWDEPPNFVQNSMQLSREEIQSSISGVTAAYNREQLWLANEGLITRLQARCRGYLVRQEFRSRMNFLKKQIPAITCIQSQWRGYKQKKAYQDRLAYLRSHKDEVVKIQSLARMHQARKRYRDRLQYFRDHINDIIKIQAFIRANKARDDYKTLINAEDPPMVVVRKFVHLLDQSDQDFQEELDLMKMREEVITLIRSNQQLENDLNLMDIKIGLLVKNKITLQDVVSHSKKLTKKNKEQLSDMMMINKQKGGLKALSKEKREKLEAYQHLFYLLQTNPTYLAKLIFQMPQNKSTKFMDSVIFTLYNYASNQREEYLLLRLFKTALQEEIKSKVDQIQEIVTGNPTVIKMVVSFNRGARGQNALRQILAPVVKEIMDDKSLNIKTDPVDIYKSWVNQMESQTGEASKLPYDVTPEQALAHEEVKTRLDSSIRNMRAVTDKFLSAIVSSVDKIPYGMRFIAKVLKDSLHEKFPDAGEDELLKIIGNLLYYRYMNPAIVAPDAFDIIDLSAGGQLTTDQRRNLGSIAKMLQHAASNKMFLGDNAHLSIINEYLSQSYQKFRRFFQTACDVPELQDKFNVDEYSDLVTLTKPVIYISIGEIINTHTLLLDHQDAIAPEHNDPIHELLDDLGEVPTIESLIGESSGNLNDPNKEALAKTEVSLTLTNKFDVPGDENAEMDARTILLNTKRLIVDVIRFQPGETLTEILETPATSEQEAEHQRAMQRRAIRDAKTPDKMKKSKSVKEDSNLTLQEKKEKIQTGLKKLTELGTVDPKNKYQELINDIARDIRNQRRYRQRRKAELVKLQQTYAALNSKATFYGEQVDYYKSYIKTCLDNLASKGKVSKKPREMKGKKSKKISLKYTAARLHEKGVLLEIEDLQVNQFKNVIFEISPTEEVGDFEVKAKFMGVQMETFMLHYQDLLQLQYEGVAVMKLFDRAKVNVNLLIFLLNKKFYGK
UniProt Q9Y5S2: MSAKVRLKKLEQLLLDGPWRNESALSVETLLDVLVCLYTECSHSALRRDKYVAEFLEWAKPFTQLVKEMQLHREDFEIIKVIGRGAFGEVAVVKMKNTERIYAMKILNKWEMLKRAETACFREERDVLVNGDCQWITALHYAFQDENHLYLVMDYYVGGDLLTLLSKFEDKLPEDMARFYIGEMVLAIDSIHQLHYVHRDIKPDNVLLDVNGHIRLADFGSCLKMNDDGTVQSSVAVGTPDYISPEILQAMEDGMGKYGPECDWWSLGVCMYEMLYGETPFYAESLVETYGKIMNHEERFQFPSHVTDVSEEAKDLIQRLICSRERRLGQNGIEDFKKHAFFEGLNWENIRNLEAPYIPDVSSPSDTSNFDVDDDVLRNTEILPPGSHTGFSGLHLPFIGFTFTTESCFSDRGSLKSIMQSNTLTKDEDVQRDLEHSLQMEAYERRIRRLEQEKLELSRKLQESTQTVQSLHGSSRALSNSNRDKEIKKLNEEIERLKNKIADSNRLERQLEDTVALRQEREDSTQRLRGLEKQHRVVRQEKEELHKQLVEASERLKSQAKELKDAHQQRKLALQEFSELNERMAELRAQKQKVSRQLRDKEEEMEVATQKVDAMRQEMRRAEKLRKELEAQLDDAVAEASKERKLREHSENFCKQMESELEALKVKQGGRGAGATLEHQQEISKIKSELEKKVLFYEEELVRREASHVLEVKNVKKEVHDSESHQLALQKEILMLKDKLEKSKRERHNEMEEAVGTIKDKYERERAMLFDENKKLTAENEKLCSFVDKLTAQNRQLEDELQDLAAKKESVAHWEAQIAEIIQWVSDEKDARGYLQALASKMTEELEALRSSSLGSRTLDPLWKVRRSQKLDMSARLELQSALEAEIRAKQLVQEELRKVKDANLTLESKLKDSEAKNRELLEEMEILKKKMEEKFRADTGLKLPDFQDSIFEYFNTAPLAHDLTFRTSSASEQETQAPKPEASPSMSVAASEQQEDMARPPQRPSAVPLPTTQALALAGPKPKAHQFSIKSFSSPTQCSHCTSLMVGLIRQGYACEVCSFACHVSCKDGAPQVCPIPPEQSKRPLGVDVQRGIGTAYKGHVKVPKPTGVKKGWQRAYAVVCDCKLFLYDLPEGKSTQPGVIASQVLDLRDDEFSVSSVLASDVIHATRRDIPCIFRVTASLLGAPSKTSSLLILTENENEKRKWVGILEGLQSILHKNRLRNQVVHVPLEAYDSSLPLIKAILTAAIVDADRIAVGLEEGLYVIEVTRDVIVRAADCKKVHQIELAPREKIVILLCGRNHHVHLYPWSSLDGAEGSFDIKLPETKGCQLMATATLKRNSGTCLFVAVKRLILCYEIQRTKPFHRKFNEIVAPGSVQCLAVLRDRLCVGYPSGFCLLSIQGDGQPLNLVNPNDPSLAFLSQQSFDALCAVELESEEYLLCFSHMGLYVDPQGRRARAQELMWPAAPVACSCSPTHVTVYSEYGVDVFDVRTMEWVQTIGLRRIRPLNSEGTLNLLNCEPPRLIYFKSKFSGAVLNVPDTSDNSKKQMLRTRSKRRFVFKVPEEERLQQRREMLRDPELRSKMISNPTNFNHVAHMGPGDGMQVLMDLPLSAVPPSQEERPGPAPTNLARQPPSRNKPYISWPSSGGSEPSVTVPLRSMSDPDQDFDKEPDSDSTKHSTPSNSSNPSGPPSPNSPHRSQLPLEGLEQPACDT
UniProt P17301: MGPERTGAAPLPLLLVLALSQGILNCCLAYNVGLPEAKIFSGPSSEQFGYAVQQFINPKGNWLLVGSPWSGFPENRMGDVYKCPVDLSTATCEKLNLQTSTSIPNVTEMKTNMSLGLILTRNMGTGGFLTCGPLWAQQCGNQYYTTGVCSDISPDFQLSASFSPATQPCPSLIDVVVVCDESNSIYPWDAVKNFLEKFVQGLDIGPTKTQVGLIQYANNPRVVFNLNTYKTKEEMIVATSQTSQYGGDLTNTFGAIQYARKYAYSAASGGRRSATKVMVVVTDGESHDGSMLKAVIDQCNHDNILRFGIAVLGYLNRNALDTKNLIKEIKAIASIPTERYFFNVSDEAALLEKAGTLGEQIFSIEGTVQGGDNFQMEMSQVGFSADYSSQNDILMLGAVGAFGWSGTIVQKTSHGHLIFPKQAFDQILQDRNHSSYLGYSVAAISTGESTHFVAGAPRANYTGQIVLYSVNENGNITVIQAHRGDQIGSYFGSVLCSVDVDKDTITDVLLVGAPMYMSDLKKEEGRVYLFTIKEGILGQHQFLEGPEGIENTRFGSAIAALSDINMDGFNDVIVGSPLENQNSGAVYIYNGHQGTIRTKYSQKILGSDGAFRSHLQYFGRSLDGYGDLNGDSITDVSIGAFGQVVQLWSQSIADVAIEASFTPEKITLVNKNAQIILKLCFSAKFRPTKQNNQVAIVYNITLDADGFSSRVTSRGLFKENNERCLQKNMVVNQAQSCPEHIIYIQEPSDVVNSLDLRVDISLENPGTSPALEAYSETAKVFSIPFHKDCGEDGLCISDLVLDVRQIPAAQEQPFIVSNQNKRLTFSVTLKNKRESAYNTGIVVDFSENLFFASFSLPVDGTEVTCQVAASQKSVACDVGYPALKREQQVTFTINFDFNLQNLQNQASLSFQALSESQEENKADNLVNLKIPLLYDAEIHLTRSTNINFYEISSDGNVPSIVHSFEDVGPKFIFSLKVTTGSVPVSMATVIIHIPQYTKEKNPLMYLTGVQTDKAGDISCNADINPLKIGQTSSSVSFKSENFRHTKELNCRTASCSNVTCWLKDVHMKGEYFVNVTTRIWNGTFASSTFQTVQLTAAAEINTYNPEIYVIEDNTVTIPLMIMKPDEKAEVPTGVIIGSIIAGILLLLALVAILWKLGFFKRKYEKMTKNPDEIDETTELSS

Assay [1] has as its target S-epitope tagged mCherry-Cdc42 fusion protein (UniProt P60953). The experiment in a line: pull-down; S-epitope tagged mCherry-GTPases expressed in ECs in 3D collagen matrices (0-16 hr; with or without increased PKCɛ expression); lysates in 1% Triton X-100, 10 mM Tris pH 7.5, 150 mM NaCl, 1 mM DTT, MgCl2 (or MgCl2 and CaCl2), 100 μM GTPγS; S-protein agarose 1 hour at 4°C, 4 washes; bound proteins detected by western blot. In general terms: A western blot detects proteins with antibodies after separation by electrophoresis.

The target of assay [2] is S-epitope tagged mCherry-Rap1b fusion protein (UniProt P61224). The assay is described as above.

On to IQGAP1 (from UniProt P46940 1-1657), for which the binding result in assay [1] was “binds”; in assay [2], “no binding”.
With “MRCKβ (from UniProt Q9Y5S2 1-1711) (enzyme)”, in assay [1], the binding entry is on record as “binds”.
On the same count and under the same terms, the same measure for “α2β1 integrin (from UniProt P17301 30-1181; P05556 21-798) (complex)”: “binds weakly”.

The values are drawn from publication PMC4728208.
